# Reference: the supplement of paper PMC10849652
# Sequences of proteins named here, by UniProt entry; tags and fusion partners are left off. A change or cut given only in a name is not applied to a line headed by its entry.
# UniProt Q9Y5V3: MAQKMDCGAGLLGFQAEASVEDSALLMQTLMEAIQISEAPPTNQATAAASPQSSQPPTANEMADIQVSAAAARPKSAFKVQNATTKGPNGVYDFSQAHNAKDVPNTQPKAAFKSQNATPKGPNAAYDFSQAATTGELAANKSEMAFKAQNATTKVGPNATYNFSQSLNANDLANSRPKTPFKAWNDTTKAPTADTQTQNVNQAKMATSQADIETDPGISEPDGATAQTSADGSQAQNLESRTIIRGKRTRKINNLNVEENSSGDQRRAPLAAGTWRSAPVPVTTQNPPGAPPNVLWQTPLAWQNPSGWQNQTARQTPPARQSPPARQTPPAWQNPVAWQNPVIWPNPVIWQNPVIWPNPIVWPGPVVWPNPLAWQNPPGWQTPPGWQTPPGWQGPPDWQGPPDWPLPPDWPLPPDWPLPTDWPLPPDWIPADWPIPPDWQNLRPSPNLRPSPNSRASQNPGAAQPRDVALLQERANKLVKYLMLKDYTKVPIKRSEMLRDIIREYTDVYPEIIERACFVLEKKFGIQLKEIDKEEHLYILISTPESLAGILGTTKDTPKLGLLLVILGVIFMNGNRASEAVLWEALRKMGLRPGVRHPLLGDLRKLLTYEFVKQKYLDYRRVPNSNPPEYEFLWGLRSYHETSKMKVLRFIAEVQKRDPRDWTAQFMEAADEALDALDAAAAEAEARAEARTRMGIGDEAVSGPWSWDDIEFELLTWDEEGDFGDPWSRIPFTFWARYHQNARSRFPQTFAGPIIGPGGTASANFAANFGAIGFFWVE
# UniProt Q13257, whole entry, looked up: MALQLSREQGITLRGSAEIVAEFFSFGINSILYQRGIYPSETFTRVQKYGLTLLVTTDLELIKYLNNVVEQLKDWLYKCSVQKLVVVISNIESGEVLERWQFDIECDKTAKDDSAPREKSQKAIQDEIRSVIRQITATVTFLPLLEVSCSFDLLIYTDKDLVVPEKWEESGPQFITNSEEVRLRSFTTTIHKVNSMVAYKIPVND
# UniProt Q32MZ4: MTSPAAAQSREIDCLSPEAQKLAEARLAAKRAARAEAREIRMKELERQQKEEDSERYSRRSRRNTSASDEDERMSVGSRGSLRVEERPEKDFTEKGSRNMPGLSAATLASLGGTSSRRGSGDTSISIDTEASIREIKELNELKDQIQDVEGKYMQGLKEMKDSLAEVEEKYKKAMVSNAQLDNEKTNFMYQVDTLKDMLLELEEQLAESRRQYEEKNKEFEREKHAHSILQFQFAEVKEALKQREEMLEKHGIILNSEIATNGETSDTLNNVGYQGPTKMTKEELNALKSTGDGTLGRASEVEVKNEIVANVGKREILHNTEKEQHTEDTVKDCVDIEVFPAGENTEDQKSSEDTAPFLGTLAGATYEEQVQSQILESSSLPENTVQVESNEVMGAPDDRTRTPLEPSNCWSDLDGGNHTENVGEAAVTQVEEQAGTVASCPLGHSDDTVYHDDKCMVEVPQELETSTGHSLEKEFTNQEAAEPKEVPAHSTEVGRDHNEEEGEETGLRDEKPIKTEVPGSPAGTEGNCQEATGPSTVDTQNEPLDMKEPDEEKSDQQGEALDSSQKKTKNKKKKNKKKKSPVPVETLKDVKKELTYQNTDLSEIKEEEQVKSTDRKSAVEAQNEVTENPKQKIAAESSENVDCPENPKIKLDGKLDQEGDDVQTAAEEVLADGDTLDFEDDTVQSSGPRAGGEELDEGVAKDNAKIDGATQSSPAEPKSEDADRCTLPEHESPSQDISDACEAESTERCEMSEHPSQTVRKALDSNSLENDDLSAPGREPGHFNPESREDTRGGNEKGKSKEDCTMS
# UniProt Q8WV07: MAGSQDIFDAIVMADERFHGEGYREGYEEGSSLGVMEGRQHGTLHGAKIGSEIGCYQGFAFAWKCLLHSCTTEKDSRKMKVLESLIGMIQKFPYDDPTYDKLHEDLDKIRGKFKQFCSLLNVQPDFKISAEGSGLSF
# UniProt Q9UPY8, whole entry, looked up: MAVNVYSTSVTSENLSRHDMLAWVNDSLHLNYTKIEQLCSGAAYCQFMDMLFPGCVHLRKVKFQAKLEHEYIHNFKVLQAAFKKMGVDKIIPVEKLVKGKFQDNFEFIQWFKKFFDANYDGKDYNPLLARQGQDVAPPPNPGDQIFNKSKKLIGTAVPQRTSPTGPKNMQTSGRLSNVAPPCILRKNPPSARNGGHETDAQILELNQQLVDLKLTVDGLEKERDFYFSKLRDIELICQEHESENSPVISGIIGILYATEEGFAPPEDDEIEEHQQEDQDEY
# UniProt Q14766: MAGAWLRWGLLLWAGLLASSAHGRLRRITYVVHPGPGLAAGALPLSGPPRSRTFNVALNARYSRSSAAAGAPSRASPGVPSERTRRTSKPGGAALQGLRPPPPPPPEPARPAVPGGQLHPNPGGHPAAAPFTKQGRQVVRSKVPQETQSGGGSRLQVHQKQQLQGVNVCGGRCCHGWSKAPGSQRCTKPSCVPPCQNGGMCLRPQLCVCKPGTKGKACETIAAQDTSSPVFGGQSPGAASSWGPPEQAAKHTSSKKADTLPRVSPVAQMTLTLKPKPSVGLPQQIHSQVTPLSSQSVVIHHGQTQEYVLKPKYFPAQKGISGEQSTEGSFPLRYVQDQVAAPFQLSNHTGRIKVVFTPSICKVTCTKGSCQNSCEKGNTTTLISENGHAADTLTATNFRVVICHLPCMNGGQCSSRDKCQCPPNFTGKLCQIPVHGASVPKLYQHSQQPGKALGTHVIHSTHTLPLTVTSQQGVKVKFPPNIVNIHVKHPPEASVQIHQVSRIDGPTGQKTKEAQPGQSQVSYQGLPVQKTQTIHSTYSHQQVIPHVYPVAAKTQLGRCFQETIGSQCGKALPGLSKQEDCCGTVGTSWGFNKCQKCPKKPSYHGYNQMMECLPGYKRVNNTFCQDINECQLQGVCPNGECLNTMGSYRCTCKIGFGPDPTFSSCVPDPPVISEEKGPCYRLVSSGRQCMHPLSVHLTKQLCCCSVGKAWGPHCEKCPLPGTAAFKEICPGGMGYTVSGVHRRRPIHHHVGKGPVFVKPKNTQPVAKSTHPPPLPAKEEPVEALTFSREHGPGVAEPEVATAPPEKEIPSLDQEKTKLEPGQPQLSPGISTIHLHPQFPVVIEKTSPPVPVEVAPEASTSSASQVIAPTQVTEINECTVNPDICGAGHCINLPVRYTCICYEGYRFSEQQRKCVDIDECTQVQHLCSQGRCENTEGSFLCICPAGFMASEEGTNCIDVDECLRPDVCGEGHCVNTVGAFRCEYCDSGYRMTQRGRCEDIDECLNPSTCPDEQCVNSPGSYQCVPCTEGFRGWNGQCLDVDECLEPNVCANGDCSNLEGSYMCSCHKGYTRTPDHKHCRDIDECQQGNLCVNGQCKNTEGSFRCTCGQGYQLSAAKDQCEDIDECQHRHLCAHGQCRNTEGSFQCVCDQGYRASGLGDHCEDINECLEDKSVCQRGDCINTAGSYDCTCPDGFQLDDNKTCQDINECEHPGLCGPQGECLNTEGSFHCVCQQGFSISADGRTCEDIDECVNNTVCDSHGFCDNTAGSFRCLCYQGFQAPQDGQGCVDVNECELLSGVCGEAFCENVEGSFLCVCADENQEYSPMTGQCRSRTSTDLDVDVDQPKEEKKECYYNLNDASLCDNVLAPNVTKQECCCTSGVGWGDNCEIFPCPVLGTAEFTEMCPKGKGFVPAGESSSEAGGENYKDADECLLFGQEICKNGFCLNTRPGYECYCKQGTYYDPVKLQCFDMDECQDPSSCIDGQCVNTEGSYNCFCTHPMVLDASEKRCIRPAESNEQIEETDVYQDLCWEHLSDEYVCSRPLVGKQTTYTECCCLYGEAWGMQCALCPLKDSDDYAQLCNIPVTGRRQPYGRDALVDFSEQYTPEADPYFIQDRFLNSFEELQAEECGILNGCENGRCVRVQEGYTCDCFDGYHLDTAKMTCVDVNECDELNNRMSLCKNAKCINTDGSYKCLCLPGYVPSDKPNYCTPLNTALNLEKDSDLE
# UniProt P07948: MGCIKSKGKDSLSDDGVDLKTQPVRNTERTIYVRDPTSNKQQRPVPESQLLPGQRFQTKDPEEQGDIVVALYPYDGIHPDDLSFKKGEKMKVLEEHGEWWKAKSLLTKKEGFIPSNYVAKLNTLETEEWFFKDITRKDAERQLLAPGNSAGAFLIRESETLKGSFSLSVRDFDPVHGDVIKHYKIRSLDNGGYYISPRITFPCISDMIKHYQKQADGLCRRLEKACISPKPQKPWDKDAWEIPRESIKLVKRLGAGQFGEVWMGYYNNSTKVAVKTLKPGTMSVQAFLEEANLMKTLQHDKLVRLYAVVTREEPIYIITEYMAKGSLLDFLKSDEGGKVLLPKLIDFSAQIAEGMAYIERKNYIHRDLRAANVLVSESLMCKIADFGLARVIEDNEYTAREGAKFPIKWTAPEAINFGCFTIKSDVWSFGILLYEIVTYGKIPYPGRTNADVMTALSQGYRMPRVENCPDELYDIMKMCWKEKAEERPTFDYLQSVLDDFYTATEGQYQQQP
# UniProt P10636, whole entry, looked up: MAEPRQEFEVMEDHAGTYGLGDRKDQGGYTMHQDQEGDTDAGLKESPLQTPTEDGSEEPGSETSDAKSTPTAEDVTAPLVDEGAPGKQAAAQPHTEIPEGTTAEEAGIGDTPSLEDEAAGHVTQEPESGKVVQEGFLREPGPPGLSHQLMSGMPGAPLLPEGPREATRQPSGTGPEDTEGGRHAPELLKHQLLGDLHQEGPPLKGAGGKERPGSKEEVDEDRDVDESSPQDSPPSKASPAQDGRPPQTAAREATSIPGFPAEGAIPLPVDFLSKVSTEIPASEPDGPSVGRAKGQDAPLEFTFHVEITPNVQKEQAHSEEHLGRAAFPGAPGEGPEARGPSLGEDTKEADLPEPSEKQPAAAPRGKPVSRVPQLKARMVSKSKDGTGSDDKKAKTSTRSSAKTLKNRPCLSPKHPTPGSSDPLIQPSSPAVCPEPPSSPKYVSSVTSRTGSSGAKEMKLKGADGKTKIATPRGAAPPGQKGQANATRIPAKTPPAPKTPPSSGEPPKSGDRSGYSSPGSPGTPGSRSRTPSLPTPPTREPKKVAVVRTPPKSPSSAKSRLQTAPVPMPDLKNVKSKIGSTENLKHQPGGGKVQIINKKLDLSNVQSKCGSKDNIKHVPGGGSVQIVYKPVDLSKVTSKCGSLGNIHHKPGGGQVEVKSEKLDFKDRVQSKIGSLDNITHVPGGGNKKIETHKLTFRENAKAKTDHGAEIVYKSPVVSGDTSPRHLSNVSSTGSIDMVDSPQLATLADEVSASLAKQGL
# UniProt Q13163: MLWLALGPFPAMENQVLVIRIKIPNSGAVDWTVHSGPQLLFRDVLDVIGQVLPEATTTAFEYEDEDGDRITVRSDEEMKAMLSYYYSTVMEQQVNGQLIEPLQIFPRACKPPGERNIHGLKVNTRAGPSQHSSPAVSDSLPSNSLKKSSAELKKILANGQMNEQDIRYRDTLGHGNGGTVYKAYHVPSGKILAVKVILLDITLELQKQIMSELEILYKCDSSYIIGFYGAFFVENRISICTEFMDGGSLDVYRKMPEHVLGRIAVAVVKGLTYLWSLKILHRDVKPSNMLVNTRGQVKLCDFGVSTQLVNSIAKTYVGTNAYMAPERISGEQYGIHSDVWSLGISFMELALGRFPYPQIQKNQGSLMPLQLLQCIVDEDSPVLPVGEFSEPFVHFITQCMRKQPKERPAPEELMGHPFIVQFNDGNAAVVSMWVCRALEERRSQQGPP
# UniProt Q13164: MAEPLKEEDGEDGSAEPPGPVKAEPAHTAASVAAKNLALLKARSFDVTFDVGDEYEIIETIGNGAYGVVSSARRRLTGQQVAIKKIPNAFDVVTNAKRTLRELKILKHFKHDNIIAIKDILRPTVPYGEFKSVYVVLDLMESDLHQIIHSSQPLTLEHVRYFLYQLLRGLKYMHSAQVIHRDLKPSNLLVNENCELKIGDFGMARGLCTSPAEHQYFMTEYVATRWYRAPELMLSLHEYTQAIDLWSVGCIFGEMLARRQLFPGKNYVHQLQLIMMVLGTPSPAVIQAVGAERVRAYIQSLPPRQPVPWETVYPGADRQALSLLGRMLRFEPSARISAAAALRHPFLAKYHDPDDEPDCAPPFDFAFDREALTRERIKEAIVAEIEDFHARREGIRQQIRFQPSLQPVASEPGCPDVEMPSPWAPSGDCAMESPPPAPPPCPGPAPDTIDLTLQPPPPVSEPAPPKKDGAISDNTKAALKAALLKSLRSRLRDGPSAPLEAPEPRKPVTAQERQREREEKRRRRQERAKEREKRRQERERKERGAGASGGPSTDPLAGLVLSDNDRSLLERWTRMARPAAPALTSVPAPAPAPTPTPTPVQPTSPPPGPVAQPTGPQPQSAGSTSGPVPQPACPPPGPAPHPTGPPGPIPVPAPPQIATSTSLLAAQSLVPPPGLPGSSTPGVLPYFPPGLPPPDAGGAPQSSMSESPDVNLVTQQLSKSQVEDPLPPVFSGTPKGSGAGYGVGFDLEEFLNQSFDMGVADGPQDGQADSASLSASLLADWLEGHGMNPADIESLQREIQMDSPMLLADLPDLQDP
# This is one part of the list.
# Legend:
# Experiment in all cases: log2 fold change, soluble protein after heating vs DMSO (PISA); higher = thermal stabilisation; K562 cells, 10 uM, 30 min; active = over 0.2 and 3.5 SD of the protein, either way, in both replicates (recomputed)
# saracatinib = compound: CN1CCN(CCOc2cc(OC3CCOCC3)c3c(Nc4c(Cl)ccc5c4OCO5)ncnc3c2)CC1 [saracatinib]
# In short: (§1)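 K562 cells at 2×10^6 cells/mL were exposed to 10 μM compound for 30 min, then aliquots were heated for 3 min across 48°C-58°C, pooled, and extracted in PBS containing 0.5% NP-40 at 4°C. The supernatant after 21,000xg for 90 min was taken as soluble protein and measured by TMTpro 16plex LC-MS/MS with channel sums equalised. Thermal stability is reported relative to control samples, with values from duplicates. Fold changes are given on a log2 scale.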
# sotrastaurin = compound: CN1CCN(c2nc(C3=C(c4c[nH]c5ccccc45)C(=O)NC3=O)c3ccccc3n2)CC1 [sotrastaurin]
# In short: as §1
# [1] = compound: CNC(=O)C1=CC=CC=C1NC2=NC(=NC=C2Cl)NC3=C(C=C(C=C3)N4CCOCC4)OC
# In short: as §1
# defactinib = compound: CNC(=O)c1ccc(Nc2ncc(C(F)(F)F)c(NCc3nccnc3N(C)S(C)(=O)=O)n2)cc1 [defactinib]
# In short: as §1
# [2] = compound: CNc1nc(-c2ccc3c(N)n[nH]c3c2)cc(N2C[C@@H](C(=O)NC3CCCCC3)CC[C@H]2C)n1
# In short: as §1
# [3] = compound: COC(=O)[C@H](CCSC)NC(=O)C1=C(C=C(C=C1)NC[C@H](CS)N)C2=CC=CC=C2
# In short: as §1
# filanesib = compound: CON(C)C(=O)N1N=C(c2cc(F)ccc2F)S[C@@]1(CCCN)c1ccccc1 [filanesib]
# In short: as §1
# zotarolimus = compound: CO[C@H]1C[C@@H]2CC[C@@H](C)[C@@](O)(O2)C(=O)C(=O)N2CCCC[C@H]2C(=O)O[C@H]([C@H](C)C[C@@H]2CC[C@H](n3cnnn3)[C@H](OC)C2)CC(=O)[C@H](C)/C=C(\C)[C@@H](O)[C@@H](OC)C(=O)[C@H](C)C[C@H](C)/C=C/C=C/C=C/1C [zotarolimus]
# In short: as §1
# idasanutlin = compound: COc1cc(C(=O)O)ccc1NC(=O)[C@@H]1N[C@@H](CC(C)(C)C)[C@](C#N)(c2ccc(Cl)cc2F)[C@H]1c1cccc(Cl)c1F [idasanutlin]
# In short: as §1
# [4] = compound: COc1cc2nc(-c3cc(F)ccc3O)nc(N[C@@H]3CNC[C@H]3C(C)(C)O)c2cc1OC
# In short: as §1
# gefitinib = compound: COc1cc2ncnc(Nc3ccc(F)c(Cl)c3)c2cc1OCCCN1CCOCC1 [gefitinib]
# In short: as §1
# lapatinib = compound: CS(=O)(=O)CCNCc1ccc(-c2ccc3ncnc(Nc4ccc(OCc5cccc(F)c5)c(Cl)c4)c3c2)o1 [lapatinib]
# In short: as §1
# Tubastatin A = compound: CN1CCc2c(c3ccccc3n2Cc2ccc(C(=O)NO)cc2)C1 [Tubastatin A]
# In short: as §1
# rucaparib = compound: CNCc1ccc(-c2[nH]c3cc(F)cc4c3c2CCNC4=O)cc1 [rucaparib]
# In short: as §1
# encorafenib = compound: COC(=O)N[C@@H](C)CNc1nccc(-c2cn(C(C)C)nc2-c2cc(Cl)cc(NS(C)(=O)=O)c2F)n1 [encorafenib]
# In short: as §1
# [5] = compound: COC1=CC=C(C=C1)CN2C=CC3=C2C=C(C=C3)C(=O)NO
# In short: as §1
# alisertib = compound: COc1cc(Nc2ncc3c(n2)-c2ccc(Cl)cc2C(c2c(F)cccc2OC)=NC3)ccc1C(=O)O [alisertib]
# In short: as §1
# [6] = compound: COc1cccc2cc(-c3nc([C@H]4CC[C@H](C(=O)O)CC4)n4ncnc(N)c34)[nH]c12
# In short: as §1
# pictilisib = compound: CS(=O)(=O)N1CCN(Cc2cc3nc(-c4cccc5[nH]ncc45)nc(N4CCOCC4)c3s2)CC1 [pictilisib]
# In short: as §1
# alvocidib = compound: CN1CC[C@H](c2c(O)cc(O)c3c(=O)cc(-c4ccccc4Cl)oc23)[C@H](O)C1 [alvocidib]
# In short: as §1
Target,log2 fold change (saracatinib),log2 fold change (sotrastaurin),log2 fold change [1],log2 fold change (defactinib),log2 fold change [2],log2 fold change [3],log2 fold change (filanesib),log2 fold change (zotarolimus),log2 fold change (idasanutlin),log2 fold change [4],log2 fold change (gefitinib),log2 fold change (lapatinib),log2 fold change (Tubastatin A),log2 fold change (rucaparib),log2 fold change (encorafenib),log2 fold change [5],log2 fold change (alisertib),log2 fold change [6],log2 fold change (pictilisib),log2 fold change (alvocidib)
MAGED1 isoform 2 (UniProt Q9Y5V3),inactive: -0.073,inactive: -0.196,inactive: 0.015,inactive: 0.036,inactive: 0.117,inactive: 0.197,inactive: 0.264,inactive: 0.001,inactive: 0.054,inactive: -0.058,inactive: 0.228,inactive: 0.034,–,–,–,–,–,–,–,–
MAD2L1 (UniProt Q13257),inactive: 0.037,inactive: -0.056,inactive: 0.05,inactive: -0.112,inactive: -0.046,inactive: -0.04,inactive: -0.042,inactive: 0.034,inactive: -0.12,inactive: 0.048,inactive: 0.008,inactive: -0.064,inactive: 0.01,inactive: -0.058,inactive: -0.007,inactive: -0.024,inactive: -0.003,inactive: 0.01,inactive: 0.024,–
MAGI3 isoform 1 (UniProt Q5TCQ9),inactive: -0.393,inactive: -0.111,–,inactive: 0.037,inactive: 0.215,inactive: -0.007,inactive: 0.013,–,inactive: -0.244,–,–,–,inactive: 0.26,inactive: 0.166,inactive: 0.031,inactive: 0.235,inactive: -0.133,inactive: 0.059,–,–
LRRFIP1 (UniProt Q32MZ4),inactive: 0.017,inactive: 0.047,inactive: -0.009,inactive: -0.01,inactive: -0.034,inactive: 0.022,inactive: 0.022,inactive: -0.034,inactive: 0.019,inactive: 0.023,inactive: -0.007,inactive: -0.012,inactive: -0.005,inactive: -0.01,inactive: -0.019,inactive: -0.014,inactive: -0.031,inactive: 0.025,inactive: -0.027,–
LUC7L3 (UniProt O95232),inactive: -0.003,inactive: 0.013,active: -0.314,inactive: -0.113,inactive: -0.048,inactive: -0.003,inactive: 0.083,inactive: 0.003,inactive: 0.031,inactive: 0.021,inactive: -0.04,inactive: 0.045,inactive: -0.007,inactive: -0.008,inactive: 0.028,inactive: 0.106,inactive: -0.009,inactive: 0.011,inactive: 0.011,–
MAP4 (UniProt E7EVA0),inactive: 0.03,inactive: -0.015,inactive: -0.059,inactive: 0.099,inactive: 0.043,inactive: 0.032,inactive: 0.216,inactive: -0.1,inactive: 0.023,inactive: -0.134,inactive: 0.109,inactive: 0.186,inactive: 0.041,inactive: 0.209,inactive: 0.017,inactive: -0.027,inactive: -0.094,inactive: -0.024,inactive: 0.019,–
LTO1 (UniProt Q8WV07),inactive: 0.071,inactive: -0.003,inactive: 0.01,inactive: 0.051,inactive: 0.073,active: -0.314,inactive: -0.06,inactive: 0.062,inactive: -0.093,inactive: 0.036,inactive: 0.017,inactive: -0.016,inactive: -0.288,inactive: 0.03,inactive: -0.016,inactive: -0.06,inactive: 0.118,inactive: -0.001,inactive: 0.038,–
MAPRE3 (UniProt Q9UPY8),inactive: -0.029,inactive: -0.016,inactive: 0.025,inactive: -0.031,inactive: -0.016,inactive: 0.027,inactive: 0.006,inactive: 0.013,inactive: 0.023,inactive: 0.033,inactive: 0.004,inactive: -0.044,inactive: -0.067,inactive: 0.02,inactive: 0.017,active: -0.242,inactive: 0.022,inactive: -0.013,inactive: -0.008,–
MARK2 (UniProt E9PC69),inactive: -0.103,inactive: -0.555,active: -1.12,inactive: -0.07,inactive: 0.037,inactive: -0.028,inactive: 0.128,inactive: 0.122,inactive: 0.106,active: -0.765,inactive: -0.025,inactive: 0.085,inactive: 0.278,inactive: 0.187,inactive: 0.144,inactive: -0.028,–,–,–,–
MAN2B2 (UniProt Q9Y2E5),inactive: -0.015,inactive: -0.018,inactive: 0.035,inactive: -0.009,inactive: 0.007,inactive: -0.04,inactive: -0.027,–,inactive: -0.012,inactive: -0.038,inactive: 0.044,inactive: -0.026,inactive: 0.105,inactive: -0.158,inactive: 0.044,inactive: -0.077,inactive: 0.022,inactive: 0.075,–,–
LTBP1 isoform 4 (UniProt Q14766),inactive: 0.15,–,inactive: -0.093,inactive: 0.015,inactive: 0.136,inactive: 0.08,–,inactive: -0.339,inactive: 0.223,inactive: 0.015,inactive: 0.178,inactive: 0.212,inactive: 0.216,–,–,–,–,–,inactive: 0.032,inactive: 0.011
LSM11 (UniProt P83369),–,–,–,–,–,–,–,inactive: -0.02,–,–,–,–,–,–,–,–,–,–,inactive: 0.024,inactive: 0.111
LYN isoform 2 (UniProt P07948),–,inactive: 0.034,inactive: 0.043,inactive: -0.035,–,inactive: -0.004,inactive: -0.212,inactive: -0.054,inactive: -0.027,inactive: 0.074,inactive: 0.069,inactive: -0.046,–,–,–,inactive: -0.2,–,–,–,–
MAML2 (UniProt Q8IZL2),–,–,inactive: -0.373,–,–,–,–,–,–,–,–,–,–,–,–,–,–,–,–,–
MAGEA1 (UniProt P43355),–,–,inactive: -0.029,–,–,–,–,inactive: -0.116,–,inactive: -0.093,inactive: -0.036,inactive: 0.03,–,–,–,inactive: -0.08,inactive: -0.13,inactive: -0.23,inactive: 0.066,inactive: -0.026
MAPT isoform 9 (UniProt P10636),–,inactive: 0.02,inactive: 0.014,inactive: -0.124,–,inactive: -0.145,inactive: 0.088,–,inactive: -0.142,inactive: -0.025,–,inactive: -0.121,–,–,–,–,–,–,–,–
MAP2K5 (UniProt Q13163),inactive: 0.445,–,–,–,inactive: 0.004,–,–,inactive: 0.003,inactive: -0.117,–,–,–,–,–,–,inactive: 0.206,–,–,–,–
LSR (UniProt M0QZL9),–,inactive: 0.042,–,inactive: 0.065,–,inactive: -0.249,inactive: 0.168,–,–,–,–,–,–,–,–,–,–,–,–,–
MAP3K10 (UniProt Q02779),–,inactive: -0.208,–,inactive: -0.129,–,inactive: -0.014,inactive: 0.146,–,inactive: -0.145,inactive: 0.277,–,inactive: 0.06,inactive: 0.036,–,–,–,–,–,inactive: 0.245,–
MARCHF3 (UniProt Q86UD3),–,inactive: -0.055,–,–,–,–,inactive: -0.272,–,–,inactive: 0.027,inactive: -0.195,inactive: -0.033,–,inactive: 0,inactive: 0.097,–,–,–,–,–
MAPKAP1 (UniProt Q9BPZ7),–,–,–,–,–,–,–,–,–,–,–,–,inactive: -0.142,–,–,–,–,–,inactive: 0.026,–
MAPK7 (UniProt Q13164),–,–,–,–,–,–,–,–,inactive: 0.003,–,–,–,–,–,–,inactive: -0.066,–,–,inactive: 0.108,–
MAP4K4 isoform 6 (UniProt O95819),inactive: -0.108,–,–,inactive: -0.012,inactive: -0.186,inactive: -0.036,inactive: -0.018,inactive: -0.162,–,–,inactive: -0.028,–,inactive: -0.016,inactive: 0.067,inactive: 0.049,–,–,inactive: -0.179,–,–
MAP4K2 (UniProt Q12851),–,inactive: -0.184,–,–,–,–,inactive: -0.143,inactive: -0.083,–,inactive: 0.426,inactive: 0.034,inactive: -0.011,inactive: 0.076,inactive: -0.003,inactive: 0.066,inactive: 0.02,–,–,–,–
MAD1L1 (UniProt Q9Y6D9),–,–,inactive: -0.008,inactive: -0.193,–,inactive: -0.001,–,inactive: -0.061,inactive: 0.056,inactive: 0.01,–,inactive: 0.061,inactive: 0.073,–,–,inactive: 0.076,inactive: 0.135,inactive: -0.117,inactive: 0.235,inactive: -0.021

# 2 entries picked at random from those above, as already listed:
Target,log2 fold change (saracatinib),log2 fold change (sotrastaurin),log2 fold change [1],log2 fold change (defactinib),log2 fold change [2],log2 fold change [3],log2 fold change (filanesib),log2 fold change (zotarolimus),log2 fold change (idasanutlin),log2 fold change [4],log2 fold change (gefitinib),log2 fold change (lapatinib),log2 fold change (Tubastatin A),log2 fold change (rucaparib),log2 fold change (encorafenib),log2 fold change [5],log2 fold change (alisertib),log2 fold change [6],log2 fold change (pictilisib),log2 fold change (alvocidib)
MAGED1 isoform 2 (UniProt Q9Y5V3),inactive: -0.073,inactive: -0.196,inactive: 0.015,inactive: 0.036,inactive: 0.117,inactive: 0.197,inactive: 0.264,inactive: 0.001,inactive: 0.054,inactive: -0.058,inactive: 0.228,inactive: 0.034,–,–,–,–,–,–,–,–
MARCHF3 (UniProt Q86UD3),–,inactive: -0.055,–,–,–,–,inactive: -0.272,–,–,inactive: 0.027,inactive: -0.195,inactive: -0.033,–,inactive: 0,inactive: 0.097,–,–,–,–,–
